According to the supplement of paper PMC6078165:
Values are relative to the signal before dosing, not to a vehicle control; the signal also falls without drug.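 Cells used are triple-negative breast cancer lines, either basal-like or mesenchymal-like, grown in the absence of fibroblasts. Lower red signal means mitochondrial integrity is lost, a surrogate for apoptosis.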

Assays:
Test in all cases: relative JC-1 red fluorescence (viability) vs pre-drug, monoculture (fraction); higher = more viable cancer cells
Conditions in all cases: coculture fibroblast: none (monoculture)
BT20 = tested on: BT20
Protocol: (§1)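 JC-1 labelled TNBC cells grown in monoculture (density kept equal with unlabelled cancer cells) in 384-well plates in FluoroBrite medium, treated with one of 42 anticancer drugs at 0.1, 1, 10 or 100 uM. JC-1 red fluorescence (mitochondrial integrity, surrogate of apoptotic death) was read by plate reader every 8 h for 72 h. Values are normalised to each well's pre-drug value, with background from alamethicin. The stock of one drug was tenfold lower, so its dose labels may be too high. Monoculture values are repeated alongside each fibroblast plate and are averaged here.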

HCC1143 = tested on: HCC1143
Protocol: as §1

Hs578T = tested on: Hs578T
Protocol: as §1

MDAMB468 = tested on: MDAMB468
Protocol: as §1

N#Cc1ccc(C(c2ccc(C#N)cc2)n2cncn2)cc1 [Letrozole]
relative JC-1 red fluorescence
Conditions	8 h	16 h	24 h	32 h	40 h	48 h	56 h	64 h	72 h
BT20, 0.1 µM	0.878	0.897	0.815	0.743	0.7	0.665	0.632	0.616	0.596
BT20, 1 µM	0.934	0.847	0.79	0.741	0.716	0.709	0.68	0.665	0.652
BT20, 10 µM	0.964	0.876	0.863	0.808	0.79	0.778	0.759	0.761	0.744
BT20, 100 µM	0.942	0.881	0.813	0.752	0.739	0.724	0.696	0.674	0.657
HCC1143, 0.1 µM	0.884	0.764	0.6839	0.627	0.571	0.531	0.501	0.484	0.471
HCC1143, 1 µM	0.8769	0.7819	0.7241	0.6906	0.653	0.6305	0.6147	0.604	0.5963
HCC1143, 10 µM	0.8849	0.795	0.73	0.6791	0.631	0.596	0.569	0.546	0.525
HCC1143, 100 µM	0.89808	0.8246	0.767	0.711	0.678	0.647	0.617	0.596	0.583
Hs578T, 0.1 µM	0.876	0.779	0.687	0.622	0.589	0.571	0.548	0.549	0.555
Hs578T, 1 µM	0.861	0.761	0.74	0.672	0.627	0.616	0.59	0.597	0.598
Hs578T, 10 µM	0.901	0.765	0.749	0.668	0.627	0.613	0.595	0.593	0.587
Hs578T, 100 µM	0.893	0.81	0.755	0.704	0.654	0.625	0.604	0.599	0.583
MDAMB468, 0.1 µM	0.9075	0.824	0.7312	0.668	0.627	0.614	0.589	0.5687	0.5594
MDAMB468, 1 µM	0.905	0.8574	0.7982	0.739	0.715	0.705	0.678	0.66	0.661
MDAMB468, 10 µM	0.857	0.7867	0.75	0.6787	0.64	0.625	0.596	0.581	0.566
MDAMB468, 100 µM	0.904	0.866	0.847	0.793	0.777	0.755	0.729	0.699	0.694

CC(=O)O[C@H]1C(=O)[C@@]2(C)[C@H]([C@H](OC(=O)c3ccccc3)[C@]3(O)C[C@H](OC(=O)[C@H](O)[C@@H](NC(=O)c4ccccc4)c4ccccc4)C(C)=C1C3(C)C)[C@]1(OC(C)=O)CO[C@@H]1C[C@@H]2O [Paclitaxel]
relative JC-1 red fluorescence
Conditions	8 h	16 h	24 h	32 h	40 h	48 h	56 h	64 h	72 h
BT20, 0.1 µM	0.95	0.897	0.796	0.725	0.667	0.647	0.623	0.597	0.586
BT20, 1 µM	0.9507	0.9227	0.8484	0.763	0.709	0.679	0.6484	0.6358	0.626
BT20, 10 µM	0.983	0.916	0.867	0.788	0.757	0.749	0.732	0.732	0.715
HCC1143, 0.1 µM	0.911	0.807	0.7367	0.6521	0.602	0.581	0.567	0.56	0.5517
HCC1143, 1 µM	0.893	0.79	0.698	0.625	0.5361	0.4904	0.455	0.434	0.432
HCC1143, 10 µM	0.916	0.824	0.739	0.658	0.612	0.581	0.556	0.538	0.532
Hs578T, 0.1 µM	0.8638	0.724	0.679	0.597	0.565	0.558	0.53	0.539	0.543
Hs578T, 1 µM	0.8543	0.71	0.617	0.5158	0.4515	0.415	0.38	0.378	0.372
Hs578T, 10 µM	0.9	0.756	0.696	0.659	0.623	0.603	0.574	0.566	0.554
MDAMB468, 0.1 µM	0.9115	0.852	0.745	0.678	0.617	0.575	0.542	0.495	0.468
MDAMB468, 1 µM	0.899	0.837	0.795	0.731	0.684	0.6493	0.6148	0.579	0.582
MDAMB468, 10 µM	0.92	0.877	0.8416	0.79	0.731	0.7108	0.6802	0.6518	0.6348
